# Assay results as given in the supplement of paper PMC10849652.
# Chains of the proteins cited; added tags and fusions are not shown. Lines headed by an entry give the natural chain unless they say otherwise; changes in a name come on top.
# UniProt Q8IVH8: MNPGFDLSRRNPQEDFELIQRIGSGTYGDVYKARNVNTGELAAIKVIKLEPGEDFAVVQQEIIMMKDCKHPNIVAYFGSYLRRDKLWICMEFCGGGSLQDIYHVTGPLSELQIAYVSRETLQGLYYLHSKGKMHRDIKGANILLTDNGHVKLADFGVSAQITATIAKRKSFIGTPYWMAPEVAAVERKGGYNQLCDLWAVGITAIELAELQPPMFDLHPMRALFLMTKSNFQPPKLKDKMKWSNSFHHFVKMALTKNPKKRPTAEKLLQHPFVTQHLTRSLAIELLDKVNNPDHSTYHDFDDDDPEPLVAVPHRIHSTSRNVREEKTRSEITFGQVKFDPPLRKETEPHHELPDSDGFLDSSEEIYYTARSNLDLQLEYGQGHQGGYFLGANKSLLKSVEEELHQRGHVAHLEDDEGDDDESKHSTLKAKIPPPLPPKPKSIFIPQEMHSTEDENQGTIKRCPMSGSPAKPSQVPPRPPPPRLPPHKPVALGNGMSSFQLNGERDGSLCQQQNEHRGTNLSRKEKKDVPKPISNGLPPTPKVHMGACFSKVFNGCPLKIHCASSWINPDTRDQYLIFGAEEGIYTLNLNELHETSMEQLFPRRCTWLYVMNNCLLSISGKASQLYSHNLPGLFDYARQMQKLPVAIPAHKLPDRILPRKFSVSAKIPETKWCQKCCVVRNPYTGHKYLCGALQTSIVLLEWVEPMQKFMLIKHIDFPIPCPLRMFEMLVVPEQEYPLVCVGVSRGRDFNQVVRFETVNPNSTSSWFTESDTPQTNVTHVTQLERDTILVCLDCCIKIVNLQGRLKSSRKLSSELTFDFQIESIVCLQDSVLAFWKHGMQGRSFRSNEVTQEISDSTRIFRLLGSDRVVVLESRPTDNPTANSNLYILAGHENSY
# UniProt Q8N2S1: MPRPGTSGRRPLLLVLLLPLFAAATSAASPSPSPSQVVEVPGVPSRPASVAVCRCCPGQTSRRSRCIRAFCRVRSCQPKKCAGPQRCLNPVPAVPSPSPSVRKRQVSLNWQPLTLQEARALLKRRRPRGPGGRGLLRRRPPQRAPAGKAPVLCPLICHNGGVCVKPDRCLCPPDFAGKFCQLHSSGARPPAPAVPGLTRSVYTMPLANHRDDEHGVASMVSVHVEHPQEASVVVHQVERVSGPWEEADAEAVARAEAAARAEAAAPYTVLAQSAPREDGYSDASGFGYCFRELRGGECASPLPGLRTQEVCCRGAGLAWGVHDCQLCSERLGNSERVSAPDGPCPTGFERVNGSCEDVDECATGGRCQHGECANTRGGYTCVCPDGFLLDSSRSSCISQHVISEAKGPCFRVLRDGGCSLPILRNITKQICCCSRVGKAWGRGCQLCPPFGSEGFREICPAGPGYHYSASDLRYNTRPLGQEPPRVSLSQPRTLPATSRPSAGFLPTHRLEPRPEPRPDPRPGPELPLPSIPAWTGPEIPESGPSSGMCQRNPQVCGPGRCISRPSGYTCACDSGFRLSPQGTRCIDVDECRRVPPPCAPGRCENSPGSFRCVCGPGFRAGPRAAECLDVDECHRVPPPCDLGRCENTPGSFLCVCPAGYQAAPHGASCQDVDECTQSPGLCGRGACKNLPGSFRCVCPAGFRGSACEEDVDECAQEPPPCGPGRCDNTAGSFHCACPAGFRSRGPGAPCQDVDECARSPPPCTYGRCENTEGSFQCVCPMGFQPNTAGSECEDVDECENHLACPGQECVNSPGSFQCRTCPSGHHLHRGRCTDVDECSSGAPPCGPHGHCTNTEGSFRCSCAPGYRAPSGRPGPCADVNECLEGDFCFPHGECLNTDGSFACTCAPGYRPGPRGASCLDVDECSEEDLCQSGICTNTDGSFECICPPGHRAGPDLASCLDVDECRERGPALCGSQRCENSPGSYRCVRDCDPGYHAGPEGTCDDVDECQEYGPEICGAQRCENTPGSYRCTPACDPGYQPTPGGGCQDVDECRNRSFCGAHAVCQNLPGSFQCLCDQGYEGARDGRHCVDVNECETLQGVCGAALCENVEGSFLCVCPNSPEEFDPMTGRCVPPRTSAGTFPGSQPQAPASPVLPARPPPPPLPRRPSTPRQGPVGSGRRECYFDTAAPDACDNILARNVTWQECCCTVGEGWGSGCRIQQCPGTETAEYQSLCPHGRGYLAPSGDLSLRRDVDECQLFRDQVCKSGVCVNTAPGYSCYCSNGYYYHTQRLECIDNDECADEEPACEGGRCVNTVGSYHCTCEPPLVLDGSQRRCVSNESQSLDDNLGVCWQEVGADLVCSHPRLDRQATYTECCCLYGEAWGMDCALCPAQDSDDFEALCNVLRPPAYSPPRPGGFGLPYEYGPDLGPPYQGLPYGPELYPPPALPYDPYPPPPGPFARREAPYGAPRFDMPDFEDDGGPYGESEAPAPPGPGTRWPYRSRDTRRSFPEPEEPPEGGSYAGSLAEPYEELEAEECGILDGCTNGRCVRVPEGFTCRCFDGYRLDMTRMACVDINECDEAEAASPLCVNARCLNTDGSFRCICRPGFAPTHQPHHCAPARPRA
# UniProt O60307: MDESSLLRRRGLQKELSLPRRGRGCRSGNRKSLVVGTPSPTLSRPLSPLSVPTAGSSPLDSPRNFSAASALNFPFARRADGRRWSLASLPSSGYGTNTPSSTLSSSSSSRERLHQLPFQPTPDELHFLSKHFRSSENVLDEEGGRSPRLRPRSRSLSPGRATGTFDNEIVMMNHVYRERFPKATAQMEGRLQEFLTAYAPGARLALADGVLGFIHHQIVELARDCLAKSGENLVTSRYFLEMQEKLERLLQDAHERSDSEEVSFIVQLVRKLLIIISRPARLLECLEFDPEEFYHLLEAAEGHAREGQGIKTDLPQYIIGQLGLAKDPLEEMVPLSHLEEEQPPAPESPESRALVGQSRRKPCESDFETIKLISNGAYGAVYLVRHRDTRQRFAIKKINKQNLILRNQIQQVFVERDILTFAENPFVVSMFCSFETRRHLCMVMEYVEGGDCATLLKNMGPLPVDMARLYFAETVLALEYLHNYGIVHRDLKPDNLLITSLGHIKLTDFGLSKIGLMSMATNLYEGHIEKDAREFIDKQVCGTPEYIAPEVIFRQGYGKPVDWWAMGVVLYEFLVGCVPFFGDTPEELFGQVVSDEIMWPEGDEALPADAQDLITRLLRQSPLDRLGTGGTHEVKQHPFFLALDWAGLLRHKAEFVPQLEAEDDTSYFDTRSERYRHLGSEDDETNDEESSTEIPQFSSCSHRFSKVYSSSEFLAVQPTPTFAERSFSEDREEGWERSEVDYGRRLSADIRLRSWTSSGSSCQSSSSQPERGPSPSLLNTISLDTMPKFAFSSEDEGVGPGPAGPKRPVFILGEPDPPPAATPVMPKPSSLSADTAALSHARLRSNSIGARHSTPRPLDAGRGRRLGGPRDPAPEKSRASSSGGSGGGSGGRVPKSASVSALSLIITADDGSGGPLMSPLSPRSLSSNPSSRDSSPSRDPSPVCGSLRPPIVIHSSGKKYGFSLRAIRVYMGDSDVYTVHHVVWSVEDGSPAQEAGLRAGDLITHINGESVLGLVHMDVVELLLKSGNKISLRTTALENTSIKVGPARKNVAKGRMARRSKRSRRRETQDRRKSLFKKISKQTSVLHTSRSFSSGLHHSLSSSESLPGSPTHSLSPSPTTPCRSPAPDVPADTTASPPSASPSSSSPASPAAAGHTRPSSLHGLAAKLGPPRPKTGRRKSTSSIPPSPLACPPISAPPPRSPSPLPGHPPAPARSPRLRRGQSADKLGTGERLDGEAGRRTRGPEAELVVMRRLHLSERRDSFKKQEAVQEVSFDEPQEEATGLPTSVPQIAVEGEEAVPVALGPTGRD
# UniProt P43357, whole entry, looked up: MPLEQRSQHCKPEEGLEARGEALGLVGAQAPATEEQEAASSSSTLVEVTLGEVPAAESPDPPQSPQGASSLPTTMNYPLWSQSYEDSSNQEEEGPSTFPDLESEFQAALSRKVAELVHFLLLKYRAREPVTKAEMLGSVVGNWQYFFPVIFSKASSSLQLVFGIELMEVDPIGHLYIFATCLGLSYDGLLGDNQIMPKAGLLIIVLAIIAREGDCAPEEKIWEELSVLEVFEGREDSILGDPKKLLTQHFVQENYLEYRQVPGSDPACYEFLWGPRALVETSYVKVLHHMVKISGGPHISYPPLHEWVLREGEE
# UniProt P43365, whole entry, looked up: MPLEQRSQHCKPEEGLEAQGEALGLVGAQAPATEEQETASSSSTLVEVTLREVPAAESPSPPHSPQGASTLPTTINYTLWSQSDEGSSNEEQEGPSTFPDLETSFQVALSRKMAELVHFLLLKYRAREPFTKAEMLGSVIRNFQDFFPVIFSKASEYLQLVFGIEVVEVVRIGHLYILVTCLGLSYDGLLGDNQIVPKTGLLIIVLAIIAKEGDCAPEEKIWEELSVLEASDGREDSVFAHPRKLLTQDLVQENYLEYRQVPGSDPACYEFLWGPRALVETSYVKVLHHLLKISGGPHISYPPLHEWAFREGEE
# UniProt P12980: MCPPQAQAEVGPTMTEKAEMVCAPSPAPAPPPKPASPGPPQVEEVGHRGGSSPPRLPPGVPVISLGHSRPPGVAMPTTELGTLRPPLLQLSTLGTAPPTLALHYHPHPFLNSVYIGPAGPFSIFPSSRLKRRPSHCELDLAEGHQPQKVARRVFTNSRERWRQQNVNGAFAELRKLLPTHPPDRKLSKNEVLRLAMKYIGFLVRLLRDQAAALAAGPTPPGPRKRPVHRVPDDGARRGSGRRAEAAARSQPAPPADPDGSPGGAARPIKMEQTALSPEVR
# UniProt P10636, whole entry, looked up: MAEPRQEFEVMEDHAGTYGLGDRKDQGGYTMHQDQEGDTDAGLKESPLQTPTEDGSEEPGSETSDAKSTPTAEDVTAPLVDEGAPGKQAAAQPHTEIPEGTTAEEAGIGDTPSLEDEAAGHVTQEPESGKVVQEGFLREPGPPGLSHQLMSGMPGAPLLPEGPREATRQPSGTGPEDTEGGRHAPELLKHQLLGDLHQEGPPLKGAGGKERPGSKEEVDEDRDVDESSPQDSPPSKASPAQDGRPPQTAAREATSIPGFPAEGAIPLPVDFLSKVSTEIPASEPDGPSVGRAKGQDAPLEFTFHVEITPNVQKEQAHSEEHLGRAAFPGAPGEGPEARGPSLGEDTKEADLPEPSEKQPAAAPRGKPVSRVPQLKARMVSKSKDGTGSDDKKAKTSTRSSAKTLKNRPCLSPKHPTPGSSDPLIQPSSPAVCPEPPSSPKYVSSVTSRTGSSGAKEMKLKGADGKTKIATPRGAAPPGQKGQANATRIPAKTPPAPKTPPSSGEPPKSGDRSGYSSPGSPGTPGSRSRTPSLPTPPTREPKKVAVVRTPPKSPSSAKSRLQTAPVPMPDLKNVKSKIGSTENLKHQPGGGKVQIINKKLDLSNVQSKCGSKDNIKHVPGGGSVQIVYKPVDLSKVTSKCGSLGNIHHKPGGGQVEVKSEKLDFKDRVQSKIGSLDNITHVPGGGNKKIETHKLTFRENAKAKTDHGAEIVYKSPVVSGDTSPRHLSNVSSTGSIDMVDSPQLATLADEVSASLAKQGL
# UniProt P21397, whole entry, looked up: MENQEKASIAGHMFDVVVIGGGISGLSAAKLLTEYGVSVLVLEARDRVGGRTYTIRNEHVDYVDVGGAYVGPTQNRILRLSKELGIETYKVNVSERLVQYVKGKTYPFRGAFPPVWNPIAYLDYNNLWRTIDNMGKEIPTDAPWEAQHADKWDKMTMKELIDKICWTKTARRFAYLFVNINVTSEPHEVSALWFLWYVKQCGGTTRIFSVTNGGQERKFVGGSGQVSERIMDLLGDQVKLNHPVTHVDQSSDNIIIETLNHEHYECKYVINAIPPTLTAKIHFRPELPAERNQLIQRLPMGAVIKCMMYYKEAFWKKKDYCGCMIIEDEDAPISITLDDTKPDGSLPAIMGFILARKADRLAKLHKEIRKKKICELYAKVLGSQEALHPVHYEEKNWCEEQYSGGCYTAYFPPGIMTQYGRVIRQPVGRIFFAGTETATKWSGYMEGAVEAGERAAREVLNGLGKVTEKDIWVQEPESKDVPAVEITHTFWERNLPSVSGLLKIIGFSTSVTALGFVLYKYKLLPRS
# UniProt O15525: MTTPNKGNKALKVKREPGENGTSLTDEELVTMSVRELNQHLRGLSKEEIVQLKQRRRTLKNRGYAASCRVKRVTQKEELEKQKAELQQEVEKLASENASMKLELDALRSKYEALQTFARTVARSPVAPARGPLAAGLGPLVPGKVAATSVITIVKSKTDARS
# Some of the results follow.
# What was measured:
# Experiment in all cases: log2 fold change, soluble protein after heating vs DMSO (PISA); higher = thermal stabilisation; K562 lysate, 10 uM; active = over 0.2 and 3.5 SD of the protein, either way, in both replicates (recomputed)
# [1] = compound: C1=CC2=NC=CN=C2C=C1/C=C/3\C(=O)NC(=O)S3
# Outline: (§1)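 K562 pellets were dounce-homogenised in PBS pH 7.4 with 1 mM MgCl2, and the crude extract at 1 mg/mL protein was treated with 10 μM compound for 30 min. Aliquots were heated for 3 min across 48°C-58°C, pooled, and brought to 0.5% NP-40 at 4°C; soluble protein was the supernatant after 21,000xg for 90 min. Soluble protein was quantified by TMTpro 16plex LC-MS/MS with channel sums equalised, and reported as log2 fold change in thermal stability against DMSO controls, with values from duplicates.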
# [2] = compound: C1=CC=C(C=C1)C2=NC(=C(N2)C3=CC=NC=C3)C4=CC(=C(C=C4)Cl)O
# Outline: as §1
# IRAK-1-4 Inhibitor I = compound: C1COCCN1CCN2C3=CC=CC=C3N=C2NC(=O)C4=CC(=CC=C4)[N+](=O)[O-] [IRAK-1-4 Inhibitor I]
# Outline: as §1
# ibrutinib = compound: C=CC(=O)N1CCC[C@@H](n2nc(-c3ccc(Oc4ccccc4)cc3)c3c(N)ncnc32)C1 [ibrutinib]
# Outline: as §1
# ralimetinib = compound: CC(C)(C)Cn1c(N)nc2ccc(-c3[nH]c(C(C)(C)C)nc3-c3ccc(F)cc3)nc21 [ralimetinib]
# Outline: as §1
# [3] = compound: CC(C)(O)CC(=O)NCCn1ccc2ncnc(Nc3ccc(Oc4cccc(C(F)(F)F)c4)c(Cl)c3)c21
# Outline: as §1
# [4] = compound: CC1=C(C2=C(C=C1)C(=O)C3=CC=CC=C3N2CCCN)C
# Outline: as §1
# [5] = compound: CC1=C(C=C(C=C1)NC(=O)C2=CC(=CC=C2)C(C)(C)C#N)NC3=CC4=C(C=C3)N=CN(C4=O)C
# Outline: as §1
# [6] = compound: CC1=C(C=C(C=C1)NC(=O)C2=CC(=CC=C2)N(C)C)NC(=O)C3=CC=C(C=C3)O
# Outline: as §1
# erlotinib = compound: C#Cc1cccc(Nc2ncnc3cc(OCCOC)c(OCCOC)cc23)c1 [erlotinib]
# Outline: as §1
# [7] = compound: C1=CC(=CC=C1C2=NC3=C(N2)C=C(C=C3)C(=O)N)OC4=CC=C(C=C4)Cl
# Outline: as §1
# [8] = compound: C1CCN(C1)C(=O)NC2=CC=CC(=C2)NC3=NC=C(C(=N3)NCCC4=CN=CN4)Br
# Outline: as §1
# [9] = compound: C1CN(CCC1(CC2=CC=C(C=C2)Cl)N)C3=NC=NC4=C3C=CN4
# Outline: as §1
# [10] = compound: CC(=O)c1cnc2ccc(-c3cc(Cl)c(O)c(Cl)c3)nc2c1N[C@H]1CC[C@H](CN(C)C)CC1
# Outline: as §1
# [11] = compound: CC(C)C1=C2N=C(C=C(N2N=C1)NCC3=CC=CC=C3)NCCCCCCN
# Outline: as §1
# [12] = compound: CC1=CC=C(C=C1)SC2=C3C=C(SC3=CN=C2)C(=O)N
# Outline: as §1
# [13] = compound: CC1=C(C(CC(=O)N1)C2=CC=C(C=C2)C(F)(F)F)C(=O)NC3=C(C=C4C(=C3)C=NN4)F
# Outline: as §1
# [14] = compound: C/C(=N\NC(=O)C1=CC(=CC=C1)S(=O)(=O)N2CCOCC2)/C3=C(C=CC(=C3)Cl)O
# Outline: as §1
# [15] = compound: C1=CC2=C(C=CC(=C2)/C=C\3/C(=O)NC(=NCC4=CC=CS4)S3)N=C1
# Outline: as §1
# [16] = compound: C1=CC=C2C(=C1)C3=NNC4=CC=CC(=C43)C2=O
# Outline: as §1
target,measurement,setting,value
MAP4K3 (UniProt Q8IVH8),log2 fold change,[1],inactive: -0.024
same,log2 fold change,[2],inactive: -0.137
same,log2 fold change,IRAK-1-4 Inhibitor I,inactive: -0.195
same,log2 fold change,ibrutinib,inactive: -0.072
same,log2 fold change,ralimetinib,inactive: -0.077
same,log2 fold change,[3],inactive: 0.062
same,log2 fold change,[4],inactive: -0.005
same,log2 fold change,[5],inactive: -0.067
same,log2 fold change,[6],inactive: 0.129
LTBP4 isoform 2 (UniProt Q8N2S1),log2 fold change,[5],inactive: -0.012
MAST3 (UniProt O60307),log2 fold change,erlotinib,inactive: -0.041
same,log2 fold change,[7],inactive: 0.023
same,log2 fold change,[2],inactive: 0.028
same,log2 fold change,[8],inactive: -0.002
same,log2 fold change,[9],inactive: 0.005
same,log2 fold change,IRAK-1-4 Inhibitor I,inactive: 0.02
same,log2 fold change,[10],inactive: 0.026
same,log2 fold change,ralimetinib,inactive: -0.036
same,log2 fold change,[3],inactive: -0.02
same,log2 fold change,[11],inactive: 0.018
same,log2 fold change,[4],inactive: -0.1
same,log2 fold change,[6],inactive: 0.011
same,log2 fold change,[12],inactive: -0.021
MAPK3 (UniProt H0YEX6),log2 fold change,[13],inactive: 0.029
MAGEA3 (UniProt P43357),log2 fold change,[14],inactive: 0.108
same,log2 fold change,[15],inactive: 0.01
same,log2 fold change,[16],inactive: -0.078
same,log2 fold change,[8],inactive: 0.048
same,log2 fold change,[9],inactive: 0.042
same,log2 fold change,[5],inactive: 0.056
MAGEA12 (UniProt P43365),log2 fold change,[14],inactive: 0.004
same,log2 fold change,[15],inactive: -0.193
same,log2 fold change,[16],inactive: -0.113
same,log2 fold change,[8],inactive: -0.05
same,log2 fold change,[9],inactive: -0.127
same,log2 fold change,[5],inactive: -0.016
LYL1 (UniProt P12980),log2 fold change,erlotinib,inactive: 0.043
same,log2 fold change,[7],inactive: -0.097
same,log2 fold change,[1],inactive: -0.007
same,log2 fold change,ibrutinib,inactive: 0.037
same,log2 fold change,[11],inactive: 0.106
same,log2 fold change,[5],inactive: -0.055
MAPT isoform 7 (UniProt P10636),log2 fold change,[14],inactive: 0.025
same,log2 fold change,[15],inactive: 0.059
same,log2 fold change,[16],inactive: -0.046
same,log2 fold change,[10],inactive: 0.035
same,log2 fold change,[5],inactive: -0.036
same,log2 fold change,[12],inactive: 0.081
MAOA (UniProt P21397),log2 fold change,[4],inactive: -1.19
MAPK7 (UniProt Q13164),log2 fold change,erlotinib,inactive: -0.1
same,log2 fold change,[7],inactive: 0.012
same,log2 fold change,[8],inactive: -0.057
same,log2 fold change,[9],inactive: 0.032
same,log2 fold change,[10],active: 0.388
same,log2 fold change,[11],inactive: 0.025
same,log2 fold change,[5],inactive: -0.034
same,log2 fold change,[12],inactive: -0.013
MAFG (UniProt O15525),log2 fold change,erlotinib,inactive: -0.029
same,log2 fold change,[7],inactive: 0.04
same,log2 fold change,[1],inactive: -0.025
same,log2 fold change,[2],inactive: -0.003
same,log2 fold change,[8],inactive: -0.046
same,log2 fold change,[9],inactive: 0.053
same,log2 fold change,IRAK-1-4 Inhibitor I,inactive: 0.031
same,log2 fold change,ibrutinib,inactive: 0
same,log2 fold change,[10],inactive: -0.186
same,log2 fold change,ralimetinib,inactive: -0.03
same,log2 fold change,[3],inactive: 0.017
same,log2 fold change,[11],inactive: 0.013
same,log2 fold change,[13],inactive: 0.036
same,log2 fold change,[4],inactive: 0.084
same,log2 fold change,[5],inactive: -0.01
same,log2 fold change,[6],inactive: -0.036
same,log2 fold change,[12],inactive: -0.117

# Some of the entries so far, with tabs:
target	measurement	setting	value
LYL1 (UniProt P12980)	log2 fold change	[1]	inactive: -0.007
same	log2 fold change	ibrutinib	inactive: 0.037

# Random excerpt: 2 entries already listed
target,measurement,setting,value
MAP4K3 (UniProt Q8IVH8),log2 fold change,ralimetinib,inactive: -0.077
same,log2 fold change,[3],inactive: 0.062
